Measurements from BigSolDB 2.1.

Nc1ccc(S(N)(=O)=O)cc1
solubility (mole fraction)
Settings	298.15 K	303.15 K	308.15 K	313.15 K
in n-octanol	0.000508	0.000601	0.00075	0.000882
in water	0.000776	0.00103	0.00139	0.00175
